This list was built around the results that the source calls inconclusive (neither active nor inactive); the mix of calls is not that of the screen. A potency beside an inconclusive call is a rough fit, not a confirmed value. Calls of active or inactive are those of the source. The call rests on the fitted dose curve.
Target: cAMP-dependent protein kinase catalytic subunit alpha (Homo sapiens) (UniProt P17612)
Assay: Protein Kinase A (PKA-HiBiT) enzymatic inhibition screen - Functional assay
Conditions: luminescence; series mostly up to 57.5 µM; activity change, negative = inhibition: at the top concentration
Text: National Center for Advancing Translational Sciences (NCATS),
National Institute of Health (NIH), Maryland
Discovery and optimization of novel protein-binding ligands underlies many of the methods and applications of biology, drug discovery, clinical diagnostics, and environmental toxicology. Assays for detecting the interaction of, for example, a molecule with a macromolecular target also referred to here as the target of interest (TOI) is dependent on a compatible output technology. Depending on the nature and knowledge surrounding the TOI, whether a receptor, enzyme, regulatory subunit or scaffold, or a sequence-defined nucleic acid folded into a complex tertiary structure, assay strategies can vary widely.
Here we exploit ligand-biased changes in the structural dynamics of the target protein to control reporter alpha complementation allowing a non-competitive, non-functional, non-separation measure of ligand-target interaction.
Using a chemical library of >1,200 compounds enriched for scaffolds known to be associated with the inhibition of firefly luciferase (FLuc) activity (PubChem AIDs 2309) we first illustrate and compare the Structural Dynamics Response (SDR) assay vs. the standard functional FLuc enzyme assay (2). Secondly, we show the specificity and sensitivity of the SDR for the Abelson tyrosine kinase (ABL1) compared to the serine/threonine protein kinase A, using an enriched chemical library of 128 compounds selected, in part, for activity annotated with ABL1 kinase activity using the Pharos database (3).
(1) A. S. Dixon et al., NanoLuc Complementation Reporter Optimized for Accurate Measurement of Protein Interactions in Cells. ACS Chem Biol 11, 400-408 (2016).
Chemistry & Biology, 19, 1060 - 1072 (2012).
(3) K. J. Kelleher et al., Pharos 2023: an integrated resource for the understudied human proteome. Nucleic Acids Res 51, D1405-D1416 (2023).
PROTOCOL TABLE (as described by Inglese J, Shamu CE and Guy RK. 2007)
SEQUENCE No. (e.g., 1, 2, 3, etc.); […] (e.g., C. elegans, Compounds, Incubation, Read, etc.); VALUE and DESCRIPTION.
1. Reagent. Dispense 4 uL PKA-N-HiBiT enzyme per well at a final enzyme concentration of 10 nM in buffer with 87.5 uM ATP (functional assay) into columns 2-48 of four replicate Greiner 1536-well white,solid bottom high base, medium plates per assay. Dispense respective buffer without enzyme at 4 uL/well in column 1 of assay plates using BioRaptr 2.
2. Compounds. Library compounds added at 23 nL/well by pin transfer. DMSO neutral control and H-89 positive control added at 25 nL/well, transfer by Mosquito dispenser.
3. Incubation. Incubate enzyme and compounds at room temperature for 30 min, protect from light.
4. Reagent. (Functional assay) Transfer 25 nL of kemptide peptide substrate to each well of four replicate kinase assay plates with Mosquito dispenser.
5. Incubation. (Functional assay) Kinase Enzyme incubated with peptide substrate for 3 h at room temperature, protected from light.
6. Reagent. (Functional assay) Add 4 uL/well of Kinase-Glo Plus reagent (Promega) to kinase activity assay plates.
7. Detector. (Functional assay) Luminescence measured using CCD-based camera (ViewLux) with settings as follows: Exposure, 1 sec; Gain, High; Speed, Slow; Binning, 2X.
Inglese J, Shamu CE and Guy RK, Reporting data from high throughput screening of small molecule libraries, Nature Chemical Biology, 2007, 3(8): 438-441. doi.org/10.1038/nchembio0807-438.

Structure (SMILES) | Potency | activity change, negative = inhibition
CCn1nc(C2CCN(C(=O)CCO)CC2)nc1-c1cnc(N)c(-c2nnc(C(C)(C)C)o2)n1 | inconclusive: 21.7 nM [inhibitor] | –
COc1ccc2c(Oc3ccc(NC(=O)c4c(C)n(CC(C)(C)O)n(-c5ccccc5)c4=O)nc3)ccnc2c1 | inconclusive: 4.17 nM [inhibitor] | –
O=C(O)C1(Cc2cccc(Nc3nccs3)n2)CCC(Oc2cccc(Cl)c2F)CC1 (stereo not given) | – | inactive: 8.13%
COc1ccc(-n2c(SCC#N)nc3sc4c(c3c2=O)CCCC4)cc1 | inconclusive: 7.7 nM [inhibitor, full curve, poor fit] | –
CCOc1ccn(-c2ccc(F)cc2)c(=O)c1C(=O)Nc1ccc(Oc2ccnc(N)c2Cl)c(F)c1 | active: 15.3 nM | –

Reference: PubChem BioAssay AID1963321 (National Center for Advancing Translational Sciences (NCATS), 2024)
